Assay results as given in the supplement of paper PMC10849652.
This is one part of the list.

Amino acid sequences for entries named in this document (tags omitted). A change or cut given only in a name is not applied to a line headed by its entry.
UniProt Q6P1L5: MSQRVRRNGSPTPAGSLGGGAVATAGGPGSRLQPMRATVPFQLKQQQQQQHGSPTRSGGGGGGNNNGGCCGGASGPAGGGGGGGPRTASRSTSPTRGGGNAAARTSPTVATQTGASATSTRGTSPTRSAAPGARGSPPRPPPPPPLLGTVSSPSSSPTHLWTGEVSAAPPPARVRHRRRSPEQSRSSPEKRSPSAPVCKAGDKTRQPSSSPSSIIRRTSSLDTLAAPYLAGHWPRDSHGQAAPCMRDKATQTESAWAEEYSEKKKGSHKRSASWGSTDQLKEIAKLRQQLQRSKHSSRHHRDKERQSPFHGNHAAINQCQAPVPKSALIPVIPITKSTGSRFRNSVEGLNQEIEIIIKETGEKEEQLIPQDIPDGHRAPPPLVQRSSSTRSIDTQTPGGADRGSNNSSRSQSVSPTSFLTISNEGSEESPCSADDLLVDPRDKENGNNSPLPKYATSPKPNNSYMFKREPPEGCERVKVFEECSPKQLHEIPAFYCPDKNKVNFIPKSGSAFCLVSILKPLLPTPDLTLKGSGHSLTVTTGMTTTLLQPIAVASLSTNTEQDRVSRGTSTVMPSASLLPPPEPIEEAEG
UniProt Q6NZ36: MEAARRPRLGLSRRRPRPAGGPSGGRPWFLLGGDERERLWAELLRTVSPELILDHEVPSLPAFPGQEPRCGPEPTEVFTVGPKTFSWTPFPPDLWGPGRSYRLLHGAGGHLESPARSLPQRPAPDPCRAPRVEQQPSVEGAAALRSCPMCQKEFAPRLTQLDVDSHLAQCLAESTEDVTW
UniProt Q96EK7: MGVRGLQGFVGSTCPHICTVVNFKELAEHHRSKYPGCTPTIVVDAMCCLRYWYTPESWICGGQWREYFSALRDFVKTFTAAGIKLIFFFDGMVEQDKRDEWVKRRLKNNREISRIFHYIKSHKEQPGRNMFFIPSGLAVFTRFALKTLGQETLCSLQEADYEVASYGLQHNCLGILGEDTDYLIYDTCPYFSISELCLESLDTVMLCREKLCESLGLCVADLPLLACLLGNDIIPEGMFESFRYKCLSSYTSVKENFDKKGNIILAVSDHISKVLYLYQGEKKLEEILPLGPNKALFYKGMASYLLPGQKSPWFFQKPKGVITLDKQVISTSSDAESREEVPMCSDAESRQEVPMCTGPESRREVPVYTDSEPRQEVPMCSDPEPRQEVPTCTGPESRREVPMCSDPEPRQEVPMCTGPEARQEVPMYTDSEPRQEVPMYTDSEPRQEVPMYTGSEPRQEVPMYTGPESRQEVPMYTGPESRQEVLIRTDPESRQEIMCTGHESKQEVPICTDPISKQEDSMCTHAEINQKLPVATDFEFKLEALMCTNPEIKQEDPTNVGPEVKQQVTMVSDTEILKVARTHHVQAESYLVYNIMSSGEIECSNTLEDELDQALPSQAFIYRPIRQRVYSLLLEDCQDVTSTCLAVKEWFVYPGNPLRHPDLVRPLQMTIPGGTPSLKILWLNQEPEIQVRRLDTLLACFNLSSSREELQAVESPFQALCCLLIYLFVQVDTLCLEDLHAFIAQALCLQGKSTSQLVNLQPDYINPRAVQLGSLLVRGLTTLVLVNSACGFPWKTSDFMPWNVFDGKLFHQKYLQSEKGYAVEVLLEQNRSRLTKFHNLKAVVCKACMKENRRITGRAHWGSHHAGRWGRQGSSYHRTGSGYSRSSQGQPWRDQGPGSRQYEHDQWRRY
UniProt Q86V87: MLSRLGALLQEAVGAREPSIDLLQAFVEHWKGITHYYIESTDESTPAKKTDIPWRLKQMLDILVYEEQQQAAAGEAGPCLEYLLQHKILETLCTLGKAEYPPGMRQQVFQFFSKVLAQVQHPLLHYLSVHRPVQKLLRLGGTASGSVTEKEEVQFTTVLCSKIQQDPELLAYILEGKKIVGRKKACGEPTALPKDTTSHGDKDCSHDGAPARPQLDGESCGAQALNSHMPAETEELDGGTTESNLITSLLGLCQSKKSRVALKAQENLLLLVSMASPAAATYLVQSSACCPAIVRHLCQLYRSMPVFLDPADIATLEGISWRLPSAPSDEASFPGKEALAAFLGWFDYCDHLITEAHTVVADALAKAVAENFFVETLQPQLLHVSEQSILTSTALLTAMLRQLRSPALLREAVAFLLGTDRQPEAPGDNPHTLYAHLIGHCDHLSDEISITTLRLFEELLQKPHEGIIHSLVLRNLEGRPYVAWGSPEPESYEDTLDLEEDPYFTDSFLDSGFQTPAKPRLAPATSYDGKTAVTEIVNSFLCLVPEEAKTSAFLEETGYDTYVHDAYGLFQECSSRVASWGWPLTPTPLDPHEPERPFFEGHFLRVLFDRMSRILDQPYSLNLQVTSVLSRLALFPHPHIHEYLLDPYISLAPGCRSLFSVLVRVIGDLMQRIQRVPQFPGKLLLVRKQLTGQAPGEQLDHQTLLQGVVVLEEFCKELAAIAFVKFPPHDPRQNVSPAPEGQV
UniProt Q8N612: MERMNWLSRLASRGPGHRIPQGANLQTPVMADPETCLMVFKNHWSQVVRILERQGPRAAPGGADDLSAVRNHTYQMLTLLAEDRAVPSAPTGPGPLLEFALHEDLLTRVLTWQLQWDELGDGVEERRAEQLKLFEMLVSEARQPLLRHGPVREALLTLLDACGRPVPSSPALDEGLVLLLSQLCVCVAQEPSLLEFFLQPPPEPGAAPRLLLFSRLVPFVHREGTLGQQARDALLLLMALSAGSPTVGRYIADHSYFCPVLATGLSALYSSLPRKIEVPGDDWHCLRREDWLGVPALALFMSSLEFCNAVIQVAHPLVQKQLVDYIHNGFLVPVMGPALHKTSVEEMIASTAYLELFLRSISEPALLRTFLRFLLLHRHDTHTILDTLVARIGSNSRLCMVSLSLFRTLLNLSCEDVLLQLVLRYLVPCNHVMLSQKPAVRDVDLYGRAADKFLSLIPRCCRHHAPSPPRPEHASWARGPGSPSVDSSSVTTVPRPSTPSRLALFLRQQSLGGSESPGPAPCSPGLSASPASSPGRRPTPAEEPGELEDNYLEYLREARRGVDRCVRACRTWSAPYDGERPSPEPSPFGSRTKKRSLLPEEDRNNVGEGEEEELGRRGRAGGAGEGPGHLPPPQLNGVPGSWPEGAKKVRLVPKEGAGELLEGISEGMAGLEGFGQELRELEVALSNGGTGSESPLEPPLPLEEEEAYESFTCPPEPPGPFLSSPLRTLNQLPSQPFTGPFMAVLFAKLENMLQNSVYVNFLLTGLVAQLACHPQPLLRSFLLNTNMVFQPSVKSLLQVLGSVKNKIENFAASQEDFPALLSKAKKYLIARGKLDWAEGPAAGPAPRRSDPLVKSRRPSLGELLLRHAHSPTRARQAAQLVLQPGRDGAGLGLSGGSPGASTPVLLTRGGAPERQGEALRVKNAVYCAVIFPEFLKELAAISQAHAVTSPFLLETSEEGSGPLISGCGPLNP
UniProt Q5VUB5: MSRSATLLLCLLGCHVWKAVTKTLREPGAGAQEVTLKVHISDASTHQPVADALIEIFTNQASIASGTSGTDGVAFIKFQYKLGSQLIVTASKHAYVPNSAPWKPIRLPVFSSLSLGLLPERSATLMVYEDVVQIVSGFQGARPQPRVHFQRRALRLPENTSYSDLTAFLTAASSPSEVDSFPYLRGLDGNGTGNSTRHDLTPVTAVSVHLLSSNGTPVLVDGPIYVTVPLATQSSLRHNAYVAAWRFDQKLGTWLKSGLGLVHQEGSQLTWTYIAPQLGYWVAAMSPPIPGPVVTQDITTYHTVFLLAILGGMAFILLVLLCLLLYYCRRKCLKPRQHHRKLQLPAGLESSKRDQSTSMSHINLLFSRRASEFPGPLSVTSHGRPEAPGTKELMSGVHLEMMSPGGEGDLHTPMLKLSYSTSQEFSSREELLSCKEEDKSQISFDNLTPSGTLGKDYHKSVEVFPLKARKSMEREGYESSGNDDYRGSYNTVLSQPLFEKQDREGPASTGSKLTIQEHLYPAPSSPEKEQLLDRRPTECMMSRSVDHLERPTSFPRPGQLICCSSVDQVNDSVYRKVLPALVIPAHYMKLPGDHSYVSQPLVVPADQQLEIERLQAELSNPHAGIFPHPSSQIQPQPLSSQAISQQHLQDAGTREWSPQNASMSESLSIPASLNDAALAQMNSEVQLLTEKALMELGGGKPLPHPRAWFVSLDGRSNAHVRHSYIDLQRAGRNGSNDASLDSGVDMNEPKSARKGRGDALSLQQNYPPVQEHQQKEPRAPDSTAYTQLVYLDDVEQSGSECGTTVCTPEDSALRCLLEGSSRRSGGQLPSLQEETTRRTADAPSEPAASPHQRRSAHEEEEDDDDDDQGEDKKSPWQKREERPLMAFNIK
UniProt O95718: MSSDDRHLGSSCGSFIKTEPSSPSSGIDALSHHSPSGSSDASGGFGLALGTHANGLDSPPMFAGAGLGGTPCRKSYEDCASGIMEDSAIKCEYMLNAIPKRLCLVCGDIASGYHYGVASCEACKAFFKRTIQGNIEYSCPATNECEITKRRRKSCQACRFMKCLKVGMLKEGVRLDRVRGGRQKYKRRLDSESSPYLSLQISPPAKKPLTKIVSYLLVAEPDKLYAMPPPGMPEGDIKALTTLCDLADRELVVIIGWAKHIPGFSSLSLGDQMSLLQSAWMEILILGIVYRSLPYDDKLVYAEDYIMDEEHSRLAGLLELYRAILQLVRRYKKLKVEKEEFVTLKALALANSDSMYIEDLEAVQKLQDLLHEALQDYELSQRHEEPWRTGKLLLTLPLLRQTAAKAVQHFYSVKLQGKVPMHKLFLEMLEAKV
UniProt P05413, whole entry, looked up: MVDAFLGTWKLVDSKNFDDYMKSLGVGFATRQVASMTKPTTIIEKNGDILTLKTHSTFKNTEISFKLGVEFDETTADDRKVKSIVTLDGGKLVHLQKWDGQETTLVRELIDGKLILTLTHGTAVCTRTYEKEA
UniProt Q9H2F5, whole entry, looked up: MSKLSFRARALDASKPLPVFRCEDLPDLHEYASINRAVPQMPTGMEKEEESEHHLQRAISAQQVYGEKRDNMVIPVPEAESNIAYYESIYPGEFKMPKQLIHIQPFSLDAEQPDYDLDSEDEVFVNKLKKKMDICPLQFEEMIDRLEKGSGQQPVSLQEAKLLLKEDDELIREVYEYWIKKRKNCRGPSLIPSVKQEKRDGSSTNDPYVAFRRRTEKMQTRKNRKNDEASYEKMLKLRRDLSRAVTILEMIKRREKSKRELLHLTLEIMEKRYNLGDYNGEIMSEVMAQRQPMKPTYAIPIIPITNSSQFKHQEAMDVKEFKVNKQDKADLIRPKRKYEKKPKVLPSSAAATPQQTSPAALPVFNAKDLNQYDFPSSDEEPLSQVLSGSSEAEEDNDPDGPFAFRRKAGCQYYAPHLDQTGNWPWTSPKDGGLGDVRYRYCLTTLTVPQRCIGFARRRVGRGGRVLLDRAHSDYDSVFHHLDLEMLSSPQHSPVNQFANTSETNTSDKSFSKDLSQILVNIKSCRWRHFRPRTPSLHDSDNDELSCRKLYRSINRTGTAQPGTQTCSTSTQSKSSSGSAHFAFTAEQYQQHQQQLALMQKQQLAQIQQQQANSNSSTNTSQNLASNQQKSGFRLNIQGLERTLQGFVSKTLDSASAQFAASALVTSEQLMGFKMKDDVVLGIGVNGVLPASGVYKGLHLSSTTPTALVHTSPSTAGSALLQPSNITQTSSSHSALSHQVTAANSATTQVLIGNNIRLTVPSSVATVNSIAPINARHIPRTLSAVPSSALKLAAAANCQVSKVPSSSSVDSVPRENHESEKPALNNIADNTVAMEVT

Each target was assayed with O=C(CCCCCCC(=O)Nc1ccccc1)NO [vorinostat] (assay: log2 fold change, soluble protein after heating vs DMSO (PISA); higher = thermal stabilisation; K562 cells, 10 uM, 30 min; active = over 0.2 and 3.5 SD of the protein, either way, in both replicates (recomputed)).
Outline: (§1)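 Soluble protein was defined as the supernatant after 21,000xg for 90 min. It came from K562 cells at 2×10^6 cells/mL given 10 μM compound for 30 min, heated in aliquots for 3 min across 48°C-58°C, pooled, and extracted in PBS with 0.5% NP-40 at 4°C, and was quantified by TMTpro 16plex LC-MS/MS with equalised channel sums. Thermal stability against control samples, from duplicates, is reported as log2 fold change.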

log2 fold change, inactive:
FAM126B (UniProt Q8IXS8) -0.202, FAM117B (UniProt Q6P1L5) 0.059, FAM171A2 (UniProt A8MVW0) -0.04, ERI1 (UniProt Q8IV48) 0.067, FAAP20 isoform 2 (UniProt Q6NZ36) 0.102, FAM120B (UniProt Q96EK7) 0.133, FADS2 (UniProt O95864) 0.531, FAM160B2 (UniProt Q86V87) 0.153, FAM110A (UniProt Q9BQ89) 0.058, FAM114A1 (UniProt Q8IWE2) 0.027, FAM160A2 isoform 2 (UniProt Q8N612) -0.009, FAM178B (UniProt Q8IXR5) -0.15, EVI5 isoform 2 (UniProt O60447) 0.259, FAM171A1 (UniProt Q5VUB5) 0.324, ETF1 isoform 2 (UniProt P62495) 0.12, FAM107B isoform 2 (UniProt Q9H098) 0.047, F2R (UniProt P25116) -0.066

Each target was assayed with O=C(CCCCCCNC(=O)c1cnc(N(c2ccccc2)c2ccccc2Cl)nc1)NO [citarinostat] in the same assay as above.
Outline: as §1

log2 fold change, inactive:
FAM117B (UniProt Q6P1L5) -0.047, FAAP20 isoform 2 (UniProt Q6NZ36) 0.136, FAM120B (UniProt Q96EK7) -0.106, FAM160B2 (UniProt Q86V87) -0.164, ESRRB isoform 1 (UniProt O95718) -0.02, FAM160A2 isoform 2 (UniProt Q8N612) -0.154, F13A1 (UniProt P00488) 0.025, FABP3 (UniProt P05413) 0.248, FAM122B isoform 2 (UniProt Q7Z309) -0.149, ETF1 isoform 2 (UniProt P62495) 0.043

Each target was assayed with O=C(O)c1ccc2c(c1)nc(Nc1cccc(Cl)c1)c1ccncc12 [silmitasertib] in the same assay as above.
Outline: as §1

log2 fold change, inactive:
ERI1 (UniProt Q8IV48) 0.084, EVA1B (UniProt Q9NVM1) 0.111, FAAP20 isoform 2 (UniProt Q6NZ36) 0.011, FAM160B2 (UniProt Q86V87) 0.158, ERMARD (UniProt Q5T6L9) -0.052, FAM114A1 (UniProt Q8IWE2) -0.097, FAM160A2 isoform 2 (UniProt Q8N612) 0.057, F13A1 (UniProt P00488) 0.087, FAM122B isoform 2 (UniProt Q7Z309) -0.076, EPC1 (UniProt Q9H2F5) 0.391, ERAP2 (UniProt Q6P179) -0.008
